According to PubChem BioAssay AID2685 (National Center for Advancing Translational Sciences (NCATS), 2010):
This is one part of the list. The main result of the screen is listed elsewhere. These columns were measured beside it and carry no call. The list favours compounds with an active or inconclusive main result. Potencies come from curve fits of mixed quality, noted in brackets.

Assay: qHTS Assay for Lipid Storage Modulators in Drosophila S3 Cells;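 on cell number change: cells counted by Cell Tracker Red CMTPX staining in the red channel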
Settings: BODIPY lipid droplet fluorescence, 18-24 h; for cell number change: measured here: cell count max response, cells fed with added oleic acid
Summary of the method: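 Laser-scanning cytometry quantifies lipid droplet accumulation (500–530 nm total intensity; droplet/cell object ratio) in oleic acid-fed (400 uM added) Drosophila S3 cells treated with a concentration series. 20 uM Triacsin C defined 100% inhibition.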

[1] = measured here: lipid fluorescence (Fed channel) AC50, cells fed with added oleic acid
[2] = measured here: cell number channel AC50, cells fed with added oleic acid

| SMILES | cell number change | AC50 [1] | AC50 [2] |
| --- | --- | --- | --- |
| COc1cccc(-n2c(=O)c3sccc3n(CC(=O)NCC3CCCO3)c2=O)c1 (centres undefined) | 25.2% | 6.51 µM [falling, single point] |  |
| COc1cc([N+](=O)[O-])ccc1NC(=O)/C=C\C(=O)O | -49.5% |  |  |
| COc1ccc(Nc2nc(NCc3ccco3)nc(N/N=C/c3ccc(O)cc3)n2)cc1 | -40.6% |  | 32.6 µM [falling, single point] |
| O=C(NCCCN1CCOCC1)C(=O)NCc1ccccc1 | -7.04% | 0.146 µM [falling, full curve, poor fit] |  |
| O=C(O)c1ccc(N2C(=O)CCCC2=O)cc1 | -19.9% | 0.0082 µM [falling, full curve, poor fit] |  |
| C=CCNc1scc(-c2ccccc2)[n+]1CC=C | -49.3% | 29.1 µM [falling, single point] | 1.16 µM [falling, full curve] |
| N=C1/C(=C/c2ccc(OCc3ccccc3)cc2)C(=O)N=C2SC(CC(=O)N3CCOCC3)=NN12 | 18% | 0.411 µM [rising, partial curve, poor fit] | 0.411 µM [rising, full curve, poor fit] |
| [O-]/[N+](=C/c1cccnc1)c1ccc(Br)cc1 | -0.992% | 0.103 µM [falling, full curve, poor fit] |  |
| O=C(N=Nc1c(O)[nH]c2ccc(F)cc12)c1ccc(NS(=O)(=O)c2cccs2)cc1 | 21.7% | 7.31 µM [rising, partial curve] |  |
| O=C(COc1ccc([N+](=O)[O-])cc1)Nc1cccnc1 | -0.623% | 8.2 µM [rising, partial curve] |  |
| CCn1c(SCC(=O)Nc2cc(OC)c(OC)c(OC)c2)nnc1-c1cccs1 | 11.9% | 3.66 µM [falling, full curve, poor fit] | 0.651 µM [rising, full curve] |
| N#Cc1cc2ccc(N3CCOCC3)cc2cc1C#N | -35.4% |  | 9.2 µM [falling, partial curve, poor fit] |
| O=C(NCCN1CCOCC1)c1ccccc1[N+](=O)[O-] | -24.6% | 1.64 µM [rising, partial curve] |  |
| Cc1nonc1NC(=O)CSc1ccccn1 |  | 6.51 µM [falling, single point] | 0.082 µM [falling, full curve, poor fit] |
| C=CCn1c(SCC(=O)Nc2c(C)n(C)n(-c3ccccc3)c2=O)nc2scc(-c3ccccc3)c2c1=O | 82.5% | 4.61 µM [rising, partial curve, poor fit] | 0.517 µM [rising, partial curve] |
| COc1ccccc1-c1sc2cc3c(cc2c1C#CCO)OCO3 | -14.8% | 0.00517 µM [falling, full curve, poor fit] |  |
| COc1ccc(NC(=O)CSc2nnc(C3CCCCC3)n2N)c(OC)c1 | 5.07% | 2.31 µM [rising, partial curve, poor fit] |  |
| O=C(CN1C(=O)C2CC=CCC2C1=O)Nc1ccc(OC(F)(F)F)cc1 (centres undefined) | -11.4% |  |  |

| SMILES | cell number change | AC50 [1] | AC50 [2] |
| --- | --- | --- | --- |
| CNC(=S)Nc1ccc([N+](=O)[O-])cc1C | -12.3% |  |  |
| CCN(CC)C(=O)CSc1nc(N)c2c3c(sc2n1)CC(C)CC3 (centres undefined) |  | 4.61 µM [rising, single point] |  |
| CCOC(=O)c1c(C)[nH]c(C(=O)N/N=C\c2ccccc2Cl)c1C |  | 0.146 µM [rising, full curve, poor fit] |  |
| Cc1cc(NS(=O)(=O)c2ccc(NC(=O)c3c(F)c(F)c(F)c(F)c3F)cc2)nc(C)n1 | -25.6% |  |  |
| Cc1nc(-c2ccccc2)sc1C(=O)CSc1ccc(Cl)cc1 | 55.6% | 6.51 µM [rising, partial curve] | 13 µM [rising, partial curve] |
| CCn1ccnc1CNC(=O)c1ccc2oc(CCCc3ccccc3)nc2c1 | -1.05% | 6.51 µM [rising, single point] |  |
| Oc1ccc(NCc2cccc(OCc3ccccc3)c2)cc1 | -30.6% | 29.1 µM [falling, single point] | 32.6 µM [falling, single point] |
| CCC(=O)c1ccc(OCC(=O)N2CCN(c3ccccn3)CC2)cc1 | 26.5% | 18.4 µM [rising, partial curve, poor fit] |  |
| Cc1ccc(S(=O)(=O)N2[C@@H](c3ccc(Cl)cc3)C(C(=O)O)=CC[C@H]2c2cccc(Cl)c2)cc1 | 24.6% | 23.1 µM [rising, single point] |  |
| Cn1cc([N+](=O)[O-])c(C(=O)Nc2ccc3nc(-c4ccccc4)[nH]c3c2)n1 | -17.3% | 0.461 µM [rising, full curve] | 4.61 µM [rising, partial curve] |
| CSc1ccc(C2=CC(=O)C[C@H](c3ccc(Cl)cc3)C2)cc1 | -3.49% | 29.1 µM [rising, single point] |  |
| OC1CN=C2C=CC=CN2C1 (centres undefined) | 3.76% |  |  |
| COCCn1c(SCC(=O)Nc2ccc(OC)cc2OC)nc2ccccc2c1=O | 3.04% | 20.6 µM [falling, partial curve] |  |
| CN(Cc1cccs1)C(=O)CCc1c[nH]c2ccccc12 | 12.6% |  |  |
| NS(=O)(=O)c1ccc(CCNS(=O)(=O)c2ccc(Cl)cc2)cc1 | 20.7% | 0.58 µM [rising, single point] |  |
| CCn1c2ccccc2c2cc(CN3CCN(C(=O)c4ccco4)CC3)ccc21 | -15.3% | 0.13 µM [falling, full curve, poor fit] | 0.116 µM [falling, full curve, poor fit] |
| CC(C)CCN1CC(=O)N2[C@@H](Cc3c([nH]c4ccccc34)C2(C)C)C1=O | 34.8% | 29.1 µM [rising, single point] | 18.4 µM [rising, single point] |
| CC(=O)NC1=NN(C(C)=O)C(C)(c2ccc3ccccc3c2)S1 (centres undefined) | -33% | 0.291 µM [falling, full curve, poor fit] | 0.116 µM [falling, full curve, poor fit] |

Molecules listed so far with a furan ring, fused or not:

| SMILES | cell number change | AC50 [1] | AC50 [2] |
| --- | --- | --- | --- |
| COc1ccc(Nc2nc(NCc3ccco3)nc(N/N=C/c3ccc(O)cc3)n2)cc1 | -40.6% |  | 32.6 µM [falling, single point] |
| CCn1c2ccccc2c2cc(CN3CCN(C(=O)c4ccco4)CC3)ccc21 | -15.3% | 0.13 µM [falling, full curve, poor fit] | 0.116 µM [falling, full curve, poor fit] |
